According to publication PMC10588359:
Results are given in words; binding and its absence hold for the method and conditions named.

By UniProt entry, the sequences of proteins in these tests, tags left out. Where a name states a change or a piece, a line headed by the entry shows the natural chain unless it says otherwise. Chains listed by the source or under a name are the forms on record and can include a tag or linker.
CaMKK2_(93–517) D330A, unphosphorylated (Q96RR4, form named): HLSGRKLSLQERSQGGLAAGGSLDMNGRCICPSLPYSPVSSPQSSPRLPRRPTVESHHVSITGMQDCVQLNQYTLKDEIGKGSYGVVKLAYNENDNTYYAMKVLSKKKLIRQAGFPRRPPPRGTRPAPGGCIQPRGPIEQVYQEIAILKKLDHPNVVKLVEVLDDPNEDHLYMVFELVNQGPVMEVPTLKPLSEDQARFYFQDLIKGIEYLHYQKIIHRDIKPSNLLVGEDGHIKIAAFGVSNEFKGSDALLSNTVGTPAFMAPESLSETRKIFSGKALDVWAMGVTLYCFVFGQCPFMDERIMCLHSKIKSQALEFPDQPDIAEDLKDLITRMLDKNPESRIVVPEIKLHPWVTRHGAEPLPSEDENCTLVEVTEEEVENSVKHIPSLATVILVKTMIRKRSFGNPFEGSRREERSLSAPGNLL

Biological target: CaMKK2_(93–517) D330A, unphosphorylated (human) (UniProt Q96RR4)
Assay: AUC; sedimentation velocity of CaMKKs alone at two concentrations (CaMKK1 at 10 μM); 50 mM Tris–HCl pH 7.5, 150 mM NaCl, 1 mM TCEP; 20°C, 42,000 rpm; monomer to dimer; both purified

Question: With “CaMKK2_(93–517) D330A, unphosphorylated (from UniProt Q96RR4 93-517) (domain or fragment)” as the substance, how does the binding read?
Answer: The binding was “no binding”.
